# According to PubChem BioAssay (NCATS):
# Several values for one entry are separate records, joined by “and”; a condition that tells them apart may be missing. Equal entries are not always repeated. The shares of active, inactive and inconclusive entries below differ from those in the screen. Potencies of inconclusive entries are doubtful fits and often do not repeat. Activity calls are given as the source filed them. Unless noted, calls come from the whole dose curve; as a rule, active = well fitted cell-killing curve with a large enough effect; inconclusive = small, poorly fitted or top-dose-only effect, or effect the other way; inactive = no such curve, though single readings can be large or run the other way.
# What was measured:
# [1] = Quantitative High-Throughput drug screen in 47 multiple myeloma cell lines against the NCATS MIPE library collection: XG6_PLB cell viability assay (AID 1919865); conditions: XG6 myeloma viability, CellTiter-Glo ATP luminescence, 48 h; viability (% of control): at 45.8 µM (top of the series); note: nearly all actives have a fitted effect of over 40% in size
# Method in brief: (§1)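 Cells were exposed to library compounds for 48 hours, after which ATP was measured by CellTiter-Glo. Signal was taken as median relative luminescence units.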
# [2] = Quantitative High-Throughput drug screen in 47 multiple myeloma cell lines against the NCATS MIPE library collection: XG1_PLB cell viability assay (AID 1919866); conditions: CellTiter-Glo ATP, 48 h; viability: at 45.8 µM (top of the series); note: nearly all actives have a fitted effect of over 35% in size
# Method in brief: as §1
# [3] = Quantitative High-Throughput drug screen in 47 multiple myeloma cell lines against the NCATS MIPE library collection: VP6_DJ cell viability assay (AID 1919867); conditions: ATP luminescence, 48 h; viability (% of DMSO): at 45.8 µM (top of the series); note: nearly all actives have a fitted effect of over 40% in size
# Method in brief: as §1
# [4] = Quantitative High-Throughput drug screen in 47 multiple myeloma cell lines against the NCATS MIPE library collection: PE2_PLB cell viability assay (AID 1919869); conditions: PE2_PLB myeloma cells viability, ATP luminescence, 48 h; viability (% of control): at 45.8 µM (top of the series); note: nearly all actives have a fitted effect of over 35% in size
# Method in brief: as §1
# [5] = Quantitative High-Throughput drug screen in 47 multiple myeloma cell lines against the NCATS MIPE library collection: PCM6_Riken cell viability assay (AID 1919870); conditions: CellTiter-Glo ATP, 48 h; viability (% of control): at 45.8 µM (top of the series); note: nearly all actives have a fitted effect of over 30% in size
# Method in brief: as §1
# [6] = Quantitative High-Throughput drug screen in 47 multiple myeloma cell lines against the NCATS MIPE library collection: OPM2_DSMZ cell viability assay (AID 1919872); conditions: OPM2 myeloma viability, CellTiter-Glo ATP luminescence, 48 h; series mostly up to 45.8 µM; note: nearly all actives have a fitted effect of over 30% in size
# Method in brief: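 Myeloma cell lines, 500 cells per well, exposed to MIPE 4.0 library compounds for 48 h at 37C, 5% CO2. Viability from ATP by CellTiter-Glo luminescence; normalised to DMSO (100%) and media-only (0%) wells.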
# [7] = Quantitative High-Throughput drug screen in 47 multiple myeloma cell lines against the NCATS MIPE library collection: KMS28BM_JCRB cell viability assay (AID 1919874); conditions: CellTiter-Glo ATP, 48 h; series mostly up to 45.8 µM; note: nearly all actives have a fitted effect of over 35% in size
# Method in brief: as §1
# [8] = qHTS for identification of novel therapeutic agents for treatment of microphthalmiaassociated transcription factor (MiT) renal cell carcinoma (RCC) (AID 1963991; calls by dose curve); conditions: TFE3-RCC UOK109 viability, CellTiter-Glo, 48 h; active = Z-AUC below -0.8 in all three lines
# Method in brief: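 Viability of three TFE3-fusion renal carcinoma lines measured by CellTiter-Glo after 48 h treatment with each of 1912 compounds at 11 concentrations. Responses scaled between DMSO (100%) and empty wells (0%) before curve fitting.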
# [9] = Quantitative High-Throughput drug screen in 47 multiple myeloma cell lines against the NCATS MIPE library collection: UTMC2_PLB cell viability assay (AID 1919868); conditions: CellTiter-Glo ATP luminescence, 48 h; viability (% of DMSO control): at 45.8 µM (top of the series); note: nearly all actives have a fitted effect of over 55% in size
# Method in brief: as §1
# [10] = Quantitative High-Throughput drug screen in 47 multiple myeloma cell lines against the NCATS MIPE library collection: RPMI8226_ATCC cell viability assay (AID 1919871); conditions: RPMI8226 myeloma viability, CellTiter-Glo ATP luminescence, 48 h; series mostly up to 45.8 µM; note: nearly all actives have a fitted effect of over 30% in size
# Method in brief: as §1
# [11] = Quantitative High-Throughput drug screen in 47 multiple myeloma cell lines against the NCATS MIPE library collection: KMS11_JCRBsus cell viability assay (AID 1919873); conditions: KMS11 myeloma viability, CellTiter-Glo ATP luminescence, 48 h; viability (% of control): at 45.8 µM (top of the series); note: nearly all actives have a fitted effect of over 50% in size
# Method in brief: as §1
# Potency is the fitted concentration of half-maximal effect.
Compound,Potency [1],Potency [2],Potency [3],Potency [4],Potency [5],Potency [6],Potency [7],Potency [8],Potency [9],Potency [10],Potency [11],viability (% of control) [1]
O=C(CCCN1CCC(O)(c2ccc(Cl)cc2)CC1)c1ccc(F)cc1,"inconclusive: 23.5 µM [cytotoxic, single point]","inconclusive: 23.5 µM [cytotoxic, partial curve]","inconclusive: 16.6 µM [cytotoxic, partial curve, poor fit]","inconclusive: 26.4 µM [cytotoxic, single point]","inconclusive: 9.35 µM [cytotoxic, partial curve]",inactive,"inconclusive: 2.35 µM [cytotoxic, partial curve, poor fit]",inconclusive: 0.118 µM,,,,
O=C(Nc1ccc(F)c(C(F)(F)F)c1)Nc1nnc(-c2ccncc2)s1,"inconclusive: 4.18 µM [cytotoxic, partial curve, poor fit]","inconclusive: 18.7 µM [cytotoxic, partial curve]",,"inconclusive: 2.64 µM [cytotoxic, full curve]",,"inconclusive: 5.26 µM [cytotoxic, partial curve, poor fit]","inconclusive: 0.0093 µM [cytotoxic, full curve, poor fit]","inconclusive: 8.33 µM [falling, full curve]","inconclusive: 4.69 µM [cytotoxic, full curve, poor fit]","inconclusive: 14.8 µM [cytotoxic, partial curve, poor fit]","inconclusive: 0.296 µM [cytotoxic, full curve, poor fit]",
CC(C)C(=O)Nc1ncc(-c2cc(C(F)F)nn2-c2c(Cl)cccc2Cl)s1,"inconclusive: 20.9 µM [cytotoxic, partial curve]",active: 10.5 µM,,active: 23.5 µM,"inconclusive: 16.6 µM [cytotoxic, partial curve]","inconclusive: 33.2 µM [cytotoxic, single point]",active: 11.8 µM,"inconclusive: 33.2 µM [falling, single point]",,"inconclusive: 26.4 µM [cytotoxic, single point]",,
O=C(O)c1ccccc1C(=O)Nc1ccc(-c2ccccc2)cc1,"inconclusive: 0.0074 µM [rising, full curve, poor fit]","inconclusive: 0.0132 µM [rising, full curve, poor fit]","inconclusive: 0.0132 µM [rising, full curve, poor fit]",,,,inactive,,inactive,,,
COc1ccc([C@@H]2CC(=O)c3c(O)cc(O[C@@H]4O[C@H](CO[C@@H]5O[C@@H](C)[C@H](O)[C@@H](O)[C@@H]5O)[C@@H](O)[C@H](O)[C@@H]4O)cc3O2)cc1O,"inconclusive: 18.7 µM [cytotoxic, partial curve] and active: 5.9 µM","inconclusive: 33.2 µM [cytotoxic, single point]",inactive,inconclusive: 0.001 µM [cytotoxic],"inconclusive: 0.0015 µM [rising, full curve, poor fit]",,,,,,"inconclusive: 0.0148 µM [rising, full curve, poor fit]",
COc1cc(Oc2ccnc3cc(OC)c(OC)cc23)ccc1NC(=O)NC(C)c1nccs1 (stereo not given),"inconclusive: 5.9 µM [cytotoxic, partial curve, poor fit]","inconclusive: 23.5 µM [cytotoxic, partial curve, poor fit]","inconclusive: 14.8 µM [cytotoxic, partial curve, poor fit]",,,,,"inconclusive: 37.2 µM [falling, single point]",inactive,,,
O=C1C[C@@H](c2ccc(O)cc2)Oc2cc(O)cc(O)c21,inactive,inactive,"inconclusive: 0.469 µM [cytotoxic, full curve, poor fit]",,,,,,,,inactive,
Oc1ccc(OCc2ccccc2)cc1,inconclusive: 0.001 µM [cytotoxic],inactive,,,inactive,,,,inactive,"inconclusive: 14.8 µM [cytotoxic, partial curve, poor fit]",,
O=C(C=CC=Cc1ccc2c(c1)OCO2)N1CCCCC1,"inconclusive: 23.5 µM [cytotoxic, partial curve, poor fit]","inconclusive: 13.2 µM [cytotoxic, partial curve, poor fit]",,,,,"inconclusive: 18.7 µM [cytotoxic, partial curve, poor fit]",,inactive,,inactive,
CCC[C@@H]1C[C@@H](C(=O)N[C@@H]([C@H]2O[C@H](SC)[C@H](O)[C@@H](O)[C@H]2O)[C@@H](C)O)N(C)C1,inactive,inactive,"inconclusive: 16.6 µM [cytotoxic, partial curve, poor fit]","inconclusive: 0.0148 µM [cytotoxic, full curve, poor fit]","inconclusive: 16.6 µM [cytotoxic, partial curve, poor fit]",,"inconclusive: 4.18 µM [cytotoxic, partial curve, poor fit]",,,"inconclusive: 1.32 µM [cytotoxic, partial curve, poor fit]","inconclusive: 1.18 µM [cytotoxic, full curve, poor fit]",
CCCn1c(=O)c2[nH]c(C34CC5CC3C[C@@H](C5)C4)nc2n(CCC)c1=O,"inconclusive: 8.33 µM [cytotoxic, full curve, poor fit]",inconclusive: 0.001 µM,"inconclusive: 0.0013 µM [rising, full curve, poor fit]",,"inconclusive: 18.7 µM [cytotoxic, partial curve, poor fit]",,inactive,inconclusive: 0.0372 µM,,,inactive,
CC(C)[C@H](CO)Nc1nc(Nc2ccc(C(=O)O)c(Cl)c2)c2ncn(C(C)C)c2n1,"inconclusive: 18.7 µM [cytotoxic, partial curve]","inconclusive: 23.5 µM [cytotoxic, partial curve]",,active: 23.5 µM,"inconclusive: 26.4 µM [cytotoxic, single point]",,"inconclusive: 37.2 µM [cytotoxic, single point]","inconclusive: 37.2 µM [falling, partial curve, poor fit]","inconclusive: 18.7 µM [cytotoxic, partial curve, poor fit]","inconclusive: 37.2 µM [cytotoxic, single point]","inconclusive: 37.2 µM [cytotoxic, single point]",
CO[C@H]1C(=O)[C@]2(C)[C@@H](OC)C[C@H]3OC[C@@]3(OC(C)=O)[C@H]2[C@H](OC(=O)c2ccccc2)[C@]2(O)C[C@H](OC(=O)[C@H](O)[C@@H](NC(=O)OC(C)(C)C)c3ccccc3)C(C)=C1C2(C)C,,"inconclusive: 0.0012 µM [cytotoxic, full curve, poor fit]",,inactive,,,,"inconclusive: 0.00105 µM [falling, full curve, poor fit]",inactive,,,inconclusive: 36.1% [cytotoxic]
CCCNS(=O)(=O)Nc1ncnc(OCCOc2ncc(Br)cn2)c1-c1ccc(Br)cc1,inactive,inactive,,inconclusive: 0.001 µM,,,inactive,,inactive,"inconclusive: 0.0105 µM [rising, full curve, poor fit]",,
O=C(O)[C@H](CC(=O)N1C[C@@H]2CCCC[C@H]2C1)Cc1ccccc1,"inconclusive: 9.35 µM [rising, partial curve, poor fit]","inconclusive: 0.264 µM [rising, full curve, poor fit]","inconclusive: 3.32 µM [rising, partial curve, poor fit]",,,,,,inactive,,inactive,
O=C(CCc1ccc(O)cc1)c1c(O)cc(O)cc1O[C@@H]1O[C@H](CO)[C@H](O)[C@H](O)[C@H]1O,"inconclusive: 0.0469 µM [rising, full curve, poor fit]",inactive,"inconclusive: 0.0209 µM [rising, full curve, poor fit]",,"inconclusive: 0.0332 µM [rising, full curve, poor fit]",,"inconclusive: 0.0296 µM [rising, full curve, poor fit]",,,,"inconclusive: 0.0296 µM [rising, full curve, poor fit]",
O=C(Nc1ccc(OC(F)(F)F)cc1)c1sccc1NCc1ccnc2ccccc12,"inconclusive: 18.7 µM [cytotoxic, partial curve]",active: 5.9 µM,,,"inconclusive: 26.4 µM [cytotoxic, partial curve, poor fit]",,"inconclusive: 26.4 µM [cytotoxic, single point]",inconclusive: 0.118 µM,active: 23.5 µM,"inconclusive: 20.9 µM [cytotoxic, partial curve]",,
O=[N+]([O-])c1ccc(Nc2ccccc2-c2ccccc2)c2nonc12,"inconclusive: 23.5 µM [cytotoxic, partial curve, poor fit]","inconclusive: 18.7 µM [cytotoxic, partial curve]",,,"inconclusive: 23.5 µM [cytotoxic, single point]","inconclusive: 20.9 µM [cytotoxic, partial curve, poor fit]","inconclusive: 33.2 µM [cytotoxic, single point]",inconclusive: 5.26 µM,"inconclusive: 29.6 µM [cytotoxic, partial curve, poor fit]","inconclusive: 29.6 µM [cytotoxic, single point]","inconclusive: 37.2 µM [cytotoxic, single point]",
CC1=C(C)C(=O)C(C(CCCCCC(=O)O)c2ccccc2)=C(C)C1=O (stereo not given),inactive,inactive,,"inconclusive: 33.2 µM [cytotoxic, single point]",,"inconclusive: 0.0017 µM [rising, full curve, poor fit]","inconclusive: 0.0012 µM [rising, full curve, poor fit]",,"inconclusive: 13.2 µM [cytotoxic, partial curve, poor fit]","inconclusive: 0.0017 µM [rising, full curve]","inconclusive: 0.0017 µM [rising, full curve, poor fit]",

# A draw from above in order of heavy-atom count, rising.
Compound,Potency [1],Potency [2],Potency [3],Potency [4],Potency [5],Potency [6],Potency [7],Potency [8],Potency [9],Potency [10],Potency [11],viability (% of control) [1]
O=C1C[C@@H](c2ccc(O)cc2)Oc2cc(O)cc(O)c21,inactive,inactive,"inconclusive: 0.469 µM [cytotoxic, full curve, poor fit]",,,,,,,,inactive,
O=C(C=CC=Cc1ccc2c(c1)OCO2)N1CCCCC1,"inconclusive: 23.5 µM [cytotoxic, partial curve, poor fit]","inconclusive: 13.2 µM [cytotoxic, partial curve, poor fit]",,,,,"inconclusive: 18.7 µM [cytotoxic, partial curve, poor fit]",,inactive,,inactive,
CC1=C(C)C(=O)C(C(CCCCCC(=O)O)c2ccccc2)=C(C)C1=O (stereo not given),inactive,inactive,,"inconclusive: 33.2 µM [cytotoxic, single point]",,"inconclusive: 0.0017 µM [rising, full curve, poor fit]","inconclusive: 0.0012 µM [rising, full curve, poor fit]",,"inconclusive: 13.2 µM [cytotoxic, partial curve, poor fit]","inconclusive: 0.0017 µM [rising, full curve]","inconclusive: 0.0017 µM [rising, full curve, poor fit]",
O=C(Nc1ccc(OC(F)(F)F)cc1)c1sccc1NCc1ccnc2ccccc12,"inconclusive: 18.7 µM [cytotoxic, partial curve]",active: 5.9 µM,,,"inconclusive: 26.4 µM [cytotoxic, partial curve, poor fit]",,"inconclusive: 26.4 µM [cytotoxic, single point]",inconclusive: 0.118 µM,active: 23.5 µM,"inconclusive: 20.9 µM [cytotoxic, partial curve]",,
CO[C@H]1C(=O)[C@]2(C)[C@@H](OC)C[C@H]3OC[C@@]3(OC(C)=O)[C@H]2[C@H](OC(=O)c2ccccc2)[C@]2(O)C[C@H](OC(=O)[C@H](O)[C@@H](NC(=O)OC(C)(C)C)c3ccccc3)C(C)=C1C2(C)C,,"inconclusive: 0.0012 µM [cytotoxic, full curve, poor fit]",,inactive,,,,"inconclusive: 0.00105 µM [falling, full curve, poor fit]",inactive,,,inconclusive: 36.1% [cytotoxic]
